Test results published in the supplement of paper PMC10849652.
This is one part of the list.

Amino acid sequences for entries named in this document (tags omitted). A change or cut given only in a name is not applied to a line headed by its entry.
UniProt Q8N755: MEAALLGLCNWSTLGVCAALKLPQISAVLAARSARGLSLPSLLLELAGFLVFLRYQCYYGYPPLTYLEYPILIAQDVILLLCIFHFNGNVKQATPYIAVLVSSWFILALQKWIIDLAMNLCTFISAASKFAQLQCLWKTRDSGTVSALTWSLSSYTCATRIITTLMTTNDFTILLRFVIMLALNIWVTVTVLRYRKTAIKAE
UniProt P78382: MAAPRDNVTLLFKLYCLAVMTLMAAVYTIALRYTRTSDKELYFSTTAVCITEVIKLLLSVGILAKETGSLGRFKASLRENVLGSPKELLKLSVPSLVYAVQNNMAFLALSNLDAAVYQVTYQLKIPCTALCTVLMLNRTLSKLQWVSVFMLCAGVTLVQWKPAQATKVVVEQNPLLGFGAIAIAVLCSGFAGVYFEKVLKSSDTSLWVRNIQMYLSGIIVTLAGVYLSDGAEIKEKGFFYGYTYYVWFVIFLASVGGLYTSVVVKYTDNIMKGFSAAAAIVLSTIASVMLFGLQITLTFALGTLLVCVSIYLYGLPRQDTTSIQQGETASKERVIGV
UniProt Q8IVJ1: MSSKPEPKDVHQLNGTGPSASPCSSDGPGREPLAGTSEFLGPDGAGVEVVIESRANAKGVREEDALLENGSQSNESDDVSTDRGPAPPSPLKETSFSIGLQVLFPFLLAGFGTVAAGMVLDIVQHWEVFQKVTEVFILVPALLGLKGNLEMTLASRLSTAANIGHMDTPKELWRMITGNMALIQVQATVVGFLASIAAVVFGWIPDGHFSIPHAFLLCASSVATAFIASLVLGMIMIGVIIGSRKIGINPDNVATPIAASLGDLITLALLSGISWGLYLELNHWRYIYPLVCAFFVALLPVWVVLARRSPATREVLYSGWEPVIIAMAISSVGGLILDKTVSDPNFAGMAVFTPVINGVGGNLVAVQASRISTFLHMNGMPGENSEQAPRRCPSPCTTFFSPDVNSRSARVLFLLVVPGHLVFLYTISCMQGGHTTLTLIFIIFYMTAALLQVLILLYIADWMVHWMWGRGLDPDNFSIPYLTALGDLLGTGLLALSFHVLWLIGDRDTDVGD
UniProt P0C7P3: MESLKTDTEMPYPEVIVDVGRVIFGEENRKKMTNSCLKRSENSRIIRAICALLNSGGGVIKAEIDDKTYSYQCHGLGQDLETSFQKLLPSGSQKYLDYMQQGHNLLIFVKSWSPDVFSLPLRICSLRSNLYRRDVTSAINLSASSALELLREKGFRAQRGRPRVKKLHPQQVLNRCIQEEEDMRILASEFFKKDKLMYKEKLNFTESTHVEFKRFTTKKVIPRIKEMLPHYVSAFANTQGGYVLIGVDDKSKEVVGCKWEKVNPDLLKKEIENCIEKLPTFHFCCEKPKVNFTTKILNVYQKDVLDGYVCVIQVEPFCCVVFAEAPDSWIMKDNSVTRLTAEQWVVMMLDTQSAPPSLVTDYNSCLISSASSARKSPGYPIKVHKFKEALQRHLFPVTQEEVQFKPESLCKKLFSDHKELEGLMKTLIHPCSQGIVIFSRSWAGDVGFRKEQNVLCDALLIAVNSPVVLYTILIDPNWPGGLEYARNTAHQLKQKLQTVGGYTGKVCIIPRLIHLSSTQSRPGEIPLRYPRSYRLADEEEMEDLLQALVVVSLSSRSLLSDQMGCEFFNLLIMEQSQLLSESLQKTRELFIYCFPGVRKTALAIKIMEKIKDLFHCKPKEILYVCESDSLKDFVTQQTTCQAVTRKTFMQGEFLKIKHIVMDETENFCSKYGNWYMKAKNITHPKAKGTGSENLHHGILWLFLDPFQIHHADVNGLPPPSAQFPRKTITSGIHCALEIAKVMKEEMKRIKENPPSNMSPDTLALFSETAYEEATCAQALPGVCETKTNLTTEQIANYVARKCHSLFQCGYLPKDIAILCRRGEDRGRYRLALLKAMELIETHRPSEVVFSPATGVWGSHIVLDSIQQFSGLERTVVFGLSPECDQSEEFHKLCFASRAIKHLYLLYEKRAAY
UniProt Q8IY92: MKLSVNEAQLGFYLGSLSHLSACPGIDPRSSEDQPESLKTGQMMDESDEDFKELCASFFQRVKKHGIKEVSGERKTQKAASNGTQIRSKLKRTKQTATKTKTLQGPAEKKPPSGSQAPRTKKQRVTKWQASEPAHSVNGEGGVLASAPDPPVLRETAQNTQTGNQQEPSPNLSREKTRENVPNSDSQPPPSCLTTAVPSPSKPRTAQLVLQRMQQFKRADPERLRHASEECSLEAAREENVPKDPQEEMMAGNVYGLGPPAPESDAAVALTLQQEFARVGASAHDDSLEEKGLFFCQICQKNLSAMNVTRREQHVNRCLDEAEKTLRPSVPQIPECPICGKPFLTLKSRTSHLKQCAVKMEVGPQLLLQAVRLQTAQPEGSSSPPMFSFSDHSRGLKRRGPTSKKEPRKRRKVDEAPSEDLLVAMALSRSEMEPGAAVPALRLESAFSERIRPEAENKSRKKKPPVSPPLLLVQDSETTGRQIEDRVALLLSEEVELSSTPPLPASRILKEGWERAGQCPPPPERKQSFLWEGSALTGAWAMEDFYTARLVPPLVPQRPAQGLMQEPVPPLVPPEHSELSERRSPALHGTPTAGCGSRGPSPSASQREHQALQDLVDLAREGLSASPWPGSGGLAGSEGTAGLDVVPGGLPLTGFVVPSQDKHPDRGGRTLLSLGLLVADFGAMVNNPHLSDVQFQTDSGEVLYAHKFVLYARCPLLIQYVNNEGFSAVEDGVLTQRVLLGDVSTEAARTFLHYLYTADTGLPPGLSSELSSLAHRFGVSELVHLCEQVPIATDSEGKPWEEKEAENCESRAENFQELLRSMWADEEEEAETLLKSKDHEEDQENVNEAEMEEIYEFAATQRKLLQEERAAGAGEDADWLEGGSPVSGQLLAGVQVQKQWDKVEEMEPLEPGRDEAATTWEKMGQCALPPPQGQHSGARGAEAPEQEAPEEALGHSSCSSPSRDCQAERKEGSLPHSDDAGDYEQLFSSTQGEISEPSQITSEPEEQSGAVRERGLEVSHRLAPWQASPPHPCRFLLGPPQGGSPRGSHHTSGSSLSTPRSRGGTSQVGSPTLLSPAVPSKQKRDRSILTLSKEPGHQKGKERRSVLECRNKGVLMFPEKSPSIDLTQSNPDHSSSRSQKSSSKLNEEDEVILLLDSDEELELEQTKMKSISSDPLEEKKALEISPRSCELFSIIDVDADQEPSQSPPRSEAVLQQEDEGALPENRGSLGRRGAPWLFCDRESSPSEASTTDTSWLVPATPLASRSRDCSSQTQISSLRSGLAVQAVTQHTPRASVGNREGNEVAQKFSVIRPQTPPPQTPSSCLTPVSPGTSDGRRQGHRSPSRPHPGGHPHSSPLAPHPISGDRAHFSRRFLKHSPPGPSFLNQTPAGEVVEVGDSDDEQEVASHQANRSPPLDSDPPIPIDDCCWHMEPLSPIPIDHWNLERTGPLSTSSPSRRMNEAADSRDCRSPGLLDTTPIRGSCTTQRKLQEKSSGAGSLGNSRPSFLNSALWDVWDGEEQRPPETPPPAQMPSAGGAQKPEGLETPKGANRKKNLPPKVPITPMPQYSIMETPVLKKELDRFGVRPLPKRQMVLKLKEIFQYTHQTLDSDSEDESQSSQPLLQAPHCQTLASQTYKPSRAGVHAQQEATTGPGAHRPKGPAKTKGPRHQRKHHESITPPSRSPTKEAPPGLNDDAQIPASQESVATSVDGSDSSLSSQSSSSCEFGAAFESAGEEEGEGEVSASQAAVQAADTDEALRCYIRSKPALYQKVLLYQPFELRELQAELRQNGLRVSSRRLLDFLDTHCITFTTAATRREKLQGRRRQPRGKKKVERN
UniProt Q6J4K2: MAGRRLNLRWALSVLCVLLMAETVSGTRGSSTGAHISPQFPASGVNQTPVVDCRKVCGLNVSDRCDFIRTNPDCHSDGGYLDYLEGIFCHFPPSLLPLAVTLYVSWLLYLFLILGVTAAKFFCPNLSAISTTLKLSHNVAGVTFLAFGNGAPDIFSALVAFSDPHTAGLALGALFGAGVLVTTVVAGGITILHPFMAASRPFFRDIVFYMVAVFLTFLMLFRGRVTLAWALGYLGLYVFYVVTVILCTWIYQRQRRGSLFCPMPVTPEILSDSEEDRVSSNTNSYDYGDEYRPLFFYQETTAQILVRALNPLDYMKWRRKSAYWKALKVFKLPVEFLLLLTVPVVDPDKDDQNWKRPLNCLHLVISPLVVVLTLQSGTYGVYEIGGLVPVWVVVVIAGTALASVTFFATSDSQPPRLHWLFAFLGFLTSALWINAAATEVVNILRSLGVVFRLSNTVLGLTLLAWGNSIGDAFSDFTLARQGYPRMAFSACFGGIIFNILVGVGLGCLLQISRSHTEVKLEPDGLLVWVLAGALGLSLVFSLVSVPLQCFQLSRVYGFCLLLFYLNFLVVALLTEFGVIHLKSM
UniProt Q96K37: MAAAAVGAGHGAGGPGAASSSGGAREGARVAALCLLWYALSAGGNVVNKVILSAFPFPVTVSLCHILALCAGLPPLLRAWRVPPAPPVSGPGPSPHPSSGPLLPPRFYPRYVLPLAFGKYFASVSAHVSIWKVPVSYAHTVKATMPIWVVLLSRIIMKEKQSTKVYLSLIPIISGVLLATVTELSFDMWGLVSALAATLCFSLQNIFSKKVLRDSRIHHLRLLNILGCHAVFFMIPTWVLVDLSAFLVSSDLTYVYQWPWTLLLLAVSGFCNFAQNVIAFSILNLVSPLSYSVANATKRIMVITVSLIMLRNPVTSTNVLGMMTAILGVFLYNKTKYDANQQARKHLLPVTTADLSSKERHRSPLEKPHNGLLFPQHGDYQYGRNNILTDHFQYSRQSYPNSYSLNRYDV
UniProt O76082: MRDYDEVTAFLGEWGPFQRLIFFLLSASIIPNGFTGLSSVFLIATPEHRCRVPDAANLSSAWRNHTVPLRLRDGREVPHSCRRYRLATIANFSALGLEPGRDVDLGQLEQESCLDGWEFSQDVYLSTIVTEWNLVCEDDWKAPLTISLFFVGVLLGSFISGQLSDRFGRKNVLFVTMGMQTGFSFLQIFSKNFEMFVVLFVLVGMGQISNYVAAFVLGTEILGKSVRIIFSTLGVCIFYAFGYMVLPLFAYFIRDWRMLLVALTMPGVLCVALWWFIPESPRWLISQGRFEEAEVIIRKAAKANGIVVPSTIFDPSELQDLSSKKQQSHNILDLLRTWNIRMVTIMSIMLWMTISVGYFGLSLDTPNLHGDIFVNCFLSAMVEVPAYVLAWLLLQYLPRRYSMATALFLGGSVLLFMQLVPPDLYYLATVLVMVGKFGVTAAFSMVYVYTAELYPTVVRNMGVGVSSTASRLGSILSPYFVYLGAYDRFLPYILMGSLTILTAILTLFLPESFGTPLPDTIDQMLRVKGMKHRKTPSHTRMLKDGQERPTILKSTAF
UniProt O94956: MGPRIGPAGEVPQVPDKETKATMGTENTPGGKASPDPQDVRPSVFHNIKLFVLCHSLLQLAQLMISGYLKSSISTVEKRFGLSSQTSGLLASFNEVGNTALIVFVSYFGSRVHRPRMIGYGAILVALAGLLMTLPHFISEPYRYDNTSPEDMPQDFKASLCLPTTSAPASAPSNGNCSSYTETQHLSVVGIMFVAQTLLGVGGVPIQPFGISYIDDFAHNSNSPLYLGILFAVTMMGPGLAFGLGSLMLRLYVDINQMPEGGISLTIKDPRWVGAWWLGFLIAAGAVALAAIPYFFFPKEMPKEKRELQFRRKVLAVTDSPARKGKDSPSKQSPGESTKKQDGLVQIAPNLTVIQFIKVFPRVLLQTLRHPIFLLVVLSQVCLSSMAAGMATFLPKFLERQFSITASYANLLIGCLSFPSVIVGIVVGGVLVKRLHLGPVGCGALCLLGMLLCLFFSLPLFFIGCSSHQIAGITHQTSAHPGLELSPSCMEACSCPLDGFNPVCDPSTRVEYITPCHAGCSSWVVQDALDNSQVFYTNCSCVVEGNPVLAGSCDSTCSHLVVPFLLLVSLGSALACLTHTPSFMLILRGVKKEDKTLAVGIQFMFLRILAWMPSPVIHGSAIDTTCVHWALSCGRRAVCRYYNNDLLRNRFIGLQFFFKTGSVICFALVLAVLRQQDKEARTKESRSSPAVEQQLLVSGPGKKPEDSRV
UniProt Q86UD5: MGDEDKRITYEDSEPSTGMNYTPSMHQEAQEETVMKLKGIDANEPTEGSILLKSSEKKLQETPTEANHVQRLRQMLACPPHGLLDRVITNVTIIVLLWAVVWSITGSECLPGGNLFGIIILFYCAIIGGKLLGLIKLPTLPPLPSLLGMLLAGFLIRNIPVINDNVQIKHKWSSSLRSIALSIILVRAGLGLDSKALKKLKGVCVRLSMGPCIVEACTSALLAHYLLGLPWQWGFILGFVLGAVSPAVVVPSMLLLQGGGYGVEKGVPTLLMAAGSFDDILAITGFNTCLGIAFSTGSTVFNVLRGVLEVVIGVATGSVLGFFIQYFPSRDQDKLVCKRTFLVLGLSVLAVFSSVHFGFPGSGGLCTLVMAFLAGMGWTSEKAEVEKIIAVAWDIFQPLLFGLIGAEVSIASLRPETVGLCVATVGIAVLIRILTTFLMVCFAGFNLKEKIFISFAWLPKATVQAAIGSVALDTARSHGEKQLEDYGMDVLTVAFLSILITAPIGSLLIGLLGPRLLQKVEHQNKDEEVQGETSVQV

Experiments:
Assay in all cases: log2 fold change, soluble protein after heating vs DMSO (PISA); higher = thermal stabilisation; K562 lysate, 10 uM; active = over 0.2 and 3.5 SD of the protein, either way, in both replicates (recomputed)
[1] = compound: Cc1nc(Nc2ncc(C(=O)Nc3c(C)cccc3Cl)s2)cc(N2CCN(CCO)CC2)n1 [dasatinib]
Summary of the method: (§1)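 Soluble protein was defined as the supernatant remaining after 21,000xg for 90 min, following pooling of heated aliquots and adjustment to 0.5% NP-40 at 4°C. Before that, crude K562 extract at 1 mg/mL protein in PBS pH 7.4 with 1 mM MgCl2 was treated with 10 μM compound for 30 min and heated for 3 min across 48°C-58°C. Quantification used TMTpro 16plex LC-MS/MS with channel sums equalised, and values are log-two fold changes in thermal stability relative to solvent controls from duplicates.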

[2] = compound: Cn1cc(-c2ccc3c(c2)CCN3C(=O)Cc2cccc(C(F)(F)F)c2)c2c(N)ncnc21
Summary of the method: as §1

[3] = compound: Cn1cc(CNCC2CCN(c3ncc(C(=O)NO)cn3)CC2)c2ccccc21 [quisinostat]
Summary of the method: as §1

[4] = compound: NC(=O)Nc1cc(-c2cccc(F)c2)sc1C(=O)N[C@H]1CCCNC1
Summary of the method: as §1

[5] = compound: NC(=O)c1cnc(N[C@@H]2CCCC[C@@H]2N)nc1Nc1cccc(-n2nccn2)c1
Summary of the method: as §1

[6] = compound: NCC(=O)Nc1ccc(-n2nc(C(F)(F)F)cc2-c2ccc3c(ccc4ccccc43)c2)cc1
Summary of the method: as §1

[7] = compound: O=C1NC(=O)C(c2cnc3ccccn23)=C1c1cn2c3c(cc(F)cc13)CN(C(=O)N1CCCCC1)CC2
Summary of the method: as §1

[8] = compound: Cc1cn(-c2cc(NC(=O)c3ccc(C)c(Nc4nccc(-c5cccnc5)n4)c3)cc(C(F)(F)F)c2)cn1 [nilotinib]
Summary of the method: as §1

[9] = compound: Cc1nc(Nc2n[nH]c3c2CN(C(=O)N[C@H](CN(C)C)c2ccccc2)C3(C)C)c2sccc2n1
Summary of the method: as §1

[10] = compound: Cc1ncc(-c2ccnc(Nc3ccc(S(C)(=O)=O)cc3)n2)n1C(C)C
Summary of the method: as §1

[11] = compound: Cn1cncc1[C@@](N)(c1ccc(Cl)cc1)c1ccc2c(c1)c(-c1cccc(Cl)c1)cc(=O)n2C [tipifarnib]
Summary of the method: as §1

[12] = compound: NC1(c2ccc(-c3nc4ccn5c(=O)[nH]nc5c4cc3-c3ccccc3)cc2)CCC1
Summary of the method: as §1

[13] = compound: O=C(CCCCCCC(=O)Nc1ccccc1)NO [vorinostat]
Summary of the method: as §1

[14] = compound: O=C(O)c1ccc2c(c1)nc(Nc1cccc(Cl)c1)c1ccncc12 [silmitasertib]
Summary of the method: as §1

[15] = compound: c1cn2cc(-c3ccc4cn[nH]c4c3)nc(Nc3ccc(N4CCOCC4)cc3)c2n1 [entospletinib]
Summary of the method: as §1

Target | log2 fold change [1] | log2 fold change [2] | log2 fold change [3] | log2 fold change [4] | log2 fold change [5] | log2 fold change [6] | log2 fold change [7] | log2 fold change [8] | log2 fold change [9] | log2 fold change [10] | log2 fold change [11] | log2 fold change [12] | log2 fold change [13] | log2 fold change [14] | log2 fold change [15]
SLC66A3 (UniProt Q8N755) | inactive: -0.063 | inactive: 0.237 | inactive: -0.018 | inactive: 0.038 | inactive: 0.138 | inactive: 0.023 | inactive: 0.105 | – | – | – | – | – | – | – | –
SLC35A1 (UniProt P78382) | – | – | inactive: -0.246 | inactive: -0.082 | – | inactive: 0.062 | inactive: -0.03 | inactive: -0.026 | inactive: 0.045 | inactive: -0.022 | inactive: -0.042 | inactive: 0.081 | inactive: -0.267 | inactive: 0.15 | –
SLC41A1 (UniProt Q8IVJ1) | – | – | inactive: 0.23 | inactive: -0.003 | inactive: 0.014 | – | active: -0.37 | inactive: -0.009 | inactive: 0.012 | inactive: 0.07 | inactive: -0.02 | inactive: 0.055 | inactive: 0.06 | inactive: -0.063 | inactive: 0.007
SLFN14 (UniProt P0C7P3) | – | – | inactive: 0.129 | inactive: 0 | – | inactive: -0.095 | inactive: -0.072 | – | – | – | – | – | – | – | inactive: 0.127
SLX4 (UniProt Q8IY92) | inactive: -0.038 | inactive: -0.135 | – | – | – | – | – | – | – | – | – | inactive: -0.032 | inactive: 0.08 | inactive: 0.038 | –
SLC8B1 (UniProt Q6J4K2) | inactive: 0.2 | inactive: 0.094 | – | – | inactive: -0.011 | inactive: -0.196 | – | – | – | – | – | – | – | – | –
SLC26A2 (UniProt P50443) | inactive: 0.077 | inactive: 0.004 | inactive: -0.072 | inactive: 0.042 | inactive: 0.005 | inactive: -0.009 | inactive: -0.045 | – | – | – | – | inactive: 0.106 | inactive: 0.197 | inactive: -0.03 | inactive: 0.004
SLC39A13 (UniProt Q96H72) | – | – | – | – | – | – | – | – | – | – | – | inactive: -0.018 | inactive: -0.064 | inactive: -0.092 | –
SLC9A6 isoform 2 (UniProt Q92581) | inactive: 0.06 | inactive: -0.03 | inactive: 0.036 | inactive: -0.139 | inactive: 0.015 | inactive: 0.073 | inactive: -0.02 | – | – | – | – | inactive: -0.038 | inactive: 0.139 | inactive: -0.021 | inactive: -0.011
SLC35E1 (UniProt Q96K37) | inactive: 0.007 | inactive: 0.006 | inactive: -0.088 | inactive: 0.023 | inactive: -0.013 | inactive: 0 | inactive: -0.021 | – | – | – | – | inactive: -0.076 | inactive: -0.029 | inactive: 0.035 | inactive: -0.101
SLC22A5 isoform 3 (UniProt O76082) | inactive: 0.017 | inactive: -0.038 | inactive: 0.129 | inactive: 0.129 | inactive: -0.155 | inactive: -0.202 | inactive: -0.324 | – | – | – | – | inactive: -0.149 | inactive: -0.095 | inactive: -0.071 | –
SLCO2B1 (UniProt O94956) | – | – | – | – | – | – | – | – | – | – | – | – | – | – | inactive: 0.081
SLC39A1 (UniProt Q9NY26) | inactive: -0.081 | inactive: 0.087 | inactive: 0.075 | inactive: -0.059 | inactive: -0.221 | – | inactive: 0.024 | – | – | – | – | inactive: 0.076 | inactive: -0.399 | inactive: -0.014 | –
SLC52A2 (UniProt Q9HAB3) | inactive: 0.057 | inactive: -0.032 | inactive: -0.108 | inactive: -0.004 | inactive: -0.074 | inactive: 0.104 | inactive: 0.004 | – | – | – | – | inactive: 0.045 | inactive: 0.053 | inactive: -0.021 | inactive: 0.004
SLC9B2 (UniProt Q86UD5) | – | – | inactive: -0.114 | inactive: 0.409 | inactive: 0.027 | – | inactive: -0.161 | – | – | – | – | – | – | – | –
SLC25A23 isoform 3 (UniProt Q9BV35) | inactive: -0.052 | inactive: -0.078 | inactive: 0.156 | inactive: 0.03 | inactive: -0.403 | – | inactive: -0.048 | – | – | – | – | inactive: 0.01 | inactive: 0.04 | inactive: -0.014 | –
SLC35D1 (UniProt Q9NTN3) | – | – | inactive: -0.198 | inactive: -0.019 | – | inactive: -0.211 | inactive: -0.088 | – | – | – | – | – | – | – | –

Two entries picked at random from those above:
Target | log2 fold change [1] | log2 fold change [2] | log2 fold change [3] | log2 fold change [4] | log2 fold change [5] | log2 fold change [6] | log2 fold change [7] | log2 fold change [8] | log2 fold change [9] | log2 fold change [10] | log2 fold change [11] | log2 fold change [12] | log2 fold change [13] | log2 fold change [14] | log2 fold change [15]
SLC41A1 (UniProt Q8IVJ1) | – | – | inactive: 0.23 | inactive: -0.003 | inactive: 0.014 | – | active: -0.37 | inactive: -0.009 | inactive: 0.012 | inactive: 0.07 | inactive: -0.02 | inactive: 0.055 | inactive: 0.06 | inactive: -0.063 | inactive: 0.007
SLC66A3 (UniProt Q8N755) | inactive: -0.063 | inactive: 0.237 | inactive: -0.018 | inactive: 0.038 | inactive: 0.138 | inactive: 0.023 | inactive: 0.105 | – | – | – | – | – | – | – | –
